# According to PubChem BioAssay AID1347076 (National Center for Advancing Translational Sciences (NCATS), 2019):
# Hit rate of the full screen: of about 400,000 compounds, about 13,000 (3.2%) were called active. The shares of active, inactive and inconclusive entries below differ from those in the screen. Calls come from the whole dose curve; as a rule, active = well fitted cell-killing curve with a large enough effect; inconclusive = small, poorly fitted or top-dose-only effect, or effect the other way; inactive = flat fitted curve, though single readings scatter. Where the call is inconclusive, the potency comes from a doubtful curve fit.
# Experiment: qHTS assay for MDR1-selective chemotherapeutics: Primary screen using the drug-selected MDR subline cells KB-V1; note: nearly all actives have a fitted effect of over 60% in size
# Details: KB-V1 MDR cells viability, CellTiter-Glo, 72 h; activity change, negative = cytotoxicity: at 46.1 µM (top of the series)
# Summary of the method: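 Cells of the MDR subline KB-V1 are plated, dosed with compound at multiple concentrations, and incubated 72 h at 37 degrees C; CellTiter-Glo is then added and luminescence read after 10 min.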
# % is set by controls: 0 for no effect and ±100 for the full control effect; potency is the fitted concentration of half-maximal effect.
SMILES,Potency,"activity change, negative = cytotoxicity"
Cc1ccc(-c2cc(C(=O)Nc3nccs3)c3ccccc3n2)c(C)c1,active: 13 µM,
Cc1occc1C(=O)O/N=C(\N)c1ccccc1,"inconclusive: 29.1 µM [cytotoxic, single point]",
O=C(COc1ccc(Cl)cc1)NNC(=O)c1ccc(=O)[nH]c1,,inactive: 21.8%
Cc1cccc(NC(=S)NC(=O)c2oc3ccccc3c2C)n1,,inactive: -0.726%
CC(=O)C(/C=N/c1ncc(C(F)(F)F)cc1Cl)=C(\C)O,"inconclusive: 16.4 µM [cytotoxic, single point]",
COc1cc(OC)cc(-c2nc3nc(C)c(CCC(=O)Nc4cc(C)cc(C)c4)c(C)n3n2)c1,,inactive: 2.54%
Cc1ccc(S(=O)(=O)N2[C@@H](c3cccc(Cl)c3)C(C(=O)OC(C)(C)C)=CC[C@H]2c2ccc(C(C)C)cc2)cc1,,inactive: 0%
COc1ccc(C(=O)C(CCC(CNC(C)(C)C)C(=O)c2ccc(OC)cc2)CNC(C)(C)C)cc1 (stereo not drawn),"inconclusive: 29.1 µM [cytotoxic, single point]",
Cc1cccc(Cn2c(-c3ccccc3)nc3ccccc32)c1,,inactive: 0%
O=C(CC1N=C2c3ccccc3N=C(SCc3ccc(F)cc3)N2C1=O)NCCc1ccccc1 (stereo not drawn),"inconclusive: 29.1 µM [cytotoxic, single point]",
COc1ccc(S(=O)(=O)Nc2ncccc2C)c2ccccc12,,inactive: -17.5%
CC(C)c1cc(C(C)C)c(S(=O)(=O)N2c3ccccc3[C@@]3(Br)C[C@H]4C(=O)N[C@@H](Cc5ccccc5)C(=O)N4[C@@H]23)c(C(C)C)c1,"inconclusive: 29.1 µM [cytotoxic, single point]",
Cc1ccc(CC2CC(=O)N(c3nc(C)cc(C)n3)C2=O)cc1 (stereo not drawn),,inactive: -11.3%
COc1cc(OC)c(C(=O)OCC(=O)Nc2nnc(-c3ccccc3)o2)cc1OC,"inconclusive: 29.1 µM [cytotoxic, single point]",
CCCCN(CCCC)C(=S)NC(=O)c1ccccc1Cl,"inconclusive: 20.6 µM [cytotoxic, single point]",
COc1ccc2[nH]c3c(c2c1)CCN(C(=O)CCC1CCCC1)C3c1ccc(F)cc1 (stereo not drawn),"inconclusive: 1.46 µM [cytotoxic, full curve, poor fit]",
CC(OC(=O)C1CCN(S(=O)(=O)c2ccc(Cl)cc2)CC1)C(=O)NC1CCCCC1C (stereo not drawn),"inconclusive: 8.2 µM [cytotoxic, partial curve]",
CC(C)(C)OC(=O)N1CCC(c2c(C(=O)N3CCN(c4ccccn4)CC3)cnn2-c2ccc(F)cc2F)CC1,,inactive: -2.25%
Cc1cccc(C)c1NC(=O)C(c1ccccc1F)n1c(=O)c(-c2cc3ccccc3[nH]2)nc2ccccc21 (stereo not drawn),,inactive: -6.65%
O=C(/C=C/c1ccccc1)c1cc(Br)ccc(=O)c1O,"inconclusive: 11.6 µM [cytotoxic, partial curve, poor fit]",
c1ccc(CNc2ccc3ccccc3n2)nc1,"inconclusive: 16.4 µM [cytotoxic, single point]",
CCc1nc2c(OCc3ccccc3)cccn2c1N(C)C(=O)C(C)C,,inconclusive: -8.63%
CC1Sc2ccc(C(=O)OCc3ccccc3Cl)cc2NC1=O (stereo not drawn),"inconclusive: 16.4 µM [cytotoxic, single point]",

SMILES,Potency,"activity change, negative = cytotoxicity"
COC(=O)[C@]12CCCCC=C1N(Cc1ccco1)C(=O)[C@H](CC(=O)N1CCOCC1)C2,,inactive: 9.21%
C[C@@H]1CCC(=O)N(C[C@@H](C)CSc2ccccc2)CC1,"inconclusive: 16.4 µM [cytotoxic, single point]",
CC(C)NC(=O)c1onc(CSc2ccc(Cl)cc2)c1C(=O)NC(C)C,"inconclusive: 32.6 µM [rising, single point]",
COc1ccc(O)c(C(=O)c2cc(SCC(=O)O)c3nc4sc5c(c4c(=O)n3c2)CCCC5)c1,,inactive: 0%
Cc1ccc(CNC(=O)C(Cc2ccccc2)NS(=O)(=O)c2ccc(Br)s2)cc1 (stereo not drawn),"inconclusive: 16.4 µM [cytotoxic, single point]",
c1cncc(N=c2scc(-c3cccc4ccccc34)n2CCCn2ccnc2)c1,active: 11.6 µM,
Cc1cc(C)nc(N2CCCC(C(=O)Nc3ccc4nc(C)c(C)nc4c3)C2)n1 (stereo not drawn),"inconclusive: 2.91 µM [cytotoxic, partial curve, poor fit]",
COc1cc(C2C3C(=O)N(c4ccccc4)C(=O)C3ON2c2ccccc2)cc(OC)c1OC (stereo not drawn),"inconclusive: 18.4 µM [rising, single point]",
CC(C)(C)c1ccc(C(=O)NCC(=O)OCc2cc(=O)n3nc(C4CC4)sc3n2)cc1,"inconclusive: 29.1 µM [rising, single point]",
COc1ccc(-n2c(=S)[nH]c3cc(C(=O)N4CCN(c5ccccc5)CC4)ccc3c2=O)cc1,,inactive: 9.02%
Cc1ccc(Sc2ncccc2O)cc1,,inactive: 9.37%
Cc1ccc(C)c(-c2nn(-c3cc(N4CCN(CCO)CC4)ccc3[N+](=O)[O-])c(=O)c3ccccc23)c1,"inconclusive: 8.2 µM [cytotoxic, partial curve]",
CCN1CCN(c2csc3ccc(Br)cc3c2=O)CC1,"inconclusive: 4.11 µM [rising, full curve]",
Cc1ccc(S(=O)(=O)N2CCN(C(=O)c3cccs3)CC2)c(C)c1,"inconclusive: 29.1 µM [cytotoxic, single point]",
COc1ccc(CC(C)NS(=O)(=O)c2ccc3c(c2)CCN3S(C)(=O)=O)cc1OC (stereo not drawn),"inconclusive: 23.1 µM [cytotoxic, partial curve]",
CC#CC(=O)N1CCC(CO)(CCc2ccccc2)CC1,,inactive: -0.134%
CC(O)(CS(=O)(=O)Cc1ccccc1)C(=O)Nc1cccc(C(F)(F)F)c1 (stereo not drawn),active: 14.6 µM,
CCCNc1nc2c(c(=O)[nH]c(=O)n2C)n1Cc1ccc(F)cc1,"inconclusive: 23.1 µM [cytotoxic, partial curve]",
c1ccc(CCNc2ncnc3c2cnn3-c2ccccc2)cc1,,inactive: -0.323%
Nc1nc2ccc(Cl)cc2cc1C(=O)NCCc1ccc(Cl)cc1Cl,"inconclusive: 16.4 µM [cytotoxic, partial curve]",
COc1ccc(CCNC(=O)CCCc2ccccc2)cc1,"inconclusive: 18.4 µM [rising, single point]",
COc1ccc(NC(=O)c2oc3ccccc3c2NC(=O)c2cc(=O)c3cc(Cl)ccc3o2)cc1,"inconclusive: 25.9 µM [rising, single point]",
CN(CC(=O)Nc1cccc(F)c1)C(=O)c1cccc(-n2cccc2)c1,"inconclusive: 16.4 µM [cytotoxic, single point]",

SMILES,Potency,"activity change, negative = cytotoxicity"
O=C(CN(C(=O)c1csnn1)c1cccc(C(F)(F)F)c1)NC1CCCC1,"inconclusive: 4.11 µM [cytotoxic, partial curve]",
Nn1cc(-c2ccccc2)nc1SCC(=O)NCCc1ccccc1,active: 23.1 µM,
N#CC1=C(N)C(C#N)(C#N)[C@H](c2ccncc2)[C@H]2CN(C(=O)OCc3ccccc3)CC=C12,"inconclusive: 14.6 µM [cytotoxic, single point]",
COc1cccc(-c2nc(CS(=O)(=O)CC(=O)NC3CCCc4ccccc43)c(C)o2)c1 (stereo not drawn),"inconclusive: 25.9 µM [cytotoxic, single point]",
O=C(NNC(=O)c1cc2ccccc2oc1=O)c1ccccc1,"inconclusive: 29.1 µM [rising, single point]",
O=C(O)c1cc(=O)c2c(Cl)cc(Cl)cc2[nH]1,,inactive: 12.8%
CCn1cc(C(=O)NCc2ccco2)c(=O)c2cc(S(=O)(=O)N3CC(C)CC(C)C3)ccc21 (stereo not drawn),"inconclusive: 2.31 µM [cytotoxic, partial curve, poor fit]",
CCOc1cc(C(=O)Nc2cc3c(cc2N2CCCC2)n(C)c(=O)c(=O)n3C)cc(OCC)c1OCC,"inconclusive: 18.4 µM [rising, partial curve, poor fit]",
COC(=O)c1ccc(C2NC(=S)N(c3ccccc3)C(C)=C2C(=O)Nc2ccccc2OC)cc1 (stereo not drawn),,inactive: 0%
COc1ccccc1Oc1ccc(S(=O)(=O)N2CCCCC2)cc1NC(=O)CCNC(C)=O,"inconclusive: 13 µM [rising, partial curve, poor fit]",
Cc1cccc(C)c1NC(=O)C(NC=O)c1ccc(Cl)cc1 (stereo not drawn),,inactive: -8.07%
C=CCNC(=O)COc1cc(C)ccc1C,,inactive: -16.7%
CN(C)S(=O)(=O)N1CCN(C(=O)N(c2ccccc2)c2ccccc2)CC1,"inconclusive: 25.9 µM [cytotoxic, partial curve, poor fit]",
CCOC(=O)CC(=O)Nc1ncnc2c1C(c1ccccc1)c1c(ccc3ccccc13)O2 (stereo not drawn),,inactive: 4.43%
CCc1ccc(/C=C2\SC(=S)N(CCCC(=O)Nc3ccc(C(=O)O)cc3)C2=O)cc1,"inconclusive: 29.1 µM [rising, single point]",
Cc1ccc(OCCOc2cccc(/C=N/NC(N)=O)c2)cc1,,inactive: 1.37%
CCCN(CCC)C(=O)c1ccc2c(=O)n(Cc3ccco3)c(=S)[nH]c2c1,"inconclusive: 13 µM [cytotoxic, partial curve]",
O=C(Nc1sc2c(c1C(=O)NCc1ccco1)CCCC2)c1cc(=O)c2cc(Cl)ccc2o1,"inconclusive: 29.1 µM [rising, single point]",
Cc1cc(Cl)cc(C)c1OCCCCN1CCOCC1,"inconclusive: 23.1 µM [cytotoxic, single point]",
CC(=O)c1ccc(N(C(=O)Cn2nnc3ccccc32)C(C(=O)NCc2ccccc2)c2ccccn2)cc1 (stereo not drawn),,inactive: 8.2%
CCc1ccc(NC(=O)N(Cc2cccnc2)Cc2ccco2)cc1,active: 14.6 µM,
COc1ccc(C(=O)COC(=O)c2cc(=O)[nH]c3ccccc23)c(OC)c1,"inconclusive: 25.9 µM [rising, single point]",
